Measurements from patent US20060019342A1 (AstraZeneca / MedImmune, published 2006).
Numbering of substitutions follows the chain as printed. Names may count otherwise. No constants are given. Whether binding was seen depends on the method and setting. Some binding calls cover weakened binding; strength is not graded here.

Amino acid sequences for entries named in this document (tags omitted). Residues count along the entry.
UniProt P29317, residues 25-534: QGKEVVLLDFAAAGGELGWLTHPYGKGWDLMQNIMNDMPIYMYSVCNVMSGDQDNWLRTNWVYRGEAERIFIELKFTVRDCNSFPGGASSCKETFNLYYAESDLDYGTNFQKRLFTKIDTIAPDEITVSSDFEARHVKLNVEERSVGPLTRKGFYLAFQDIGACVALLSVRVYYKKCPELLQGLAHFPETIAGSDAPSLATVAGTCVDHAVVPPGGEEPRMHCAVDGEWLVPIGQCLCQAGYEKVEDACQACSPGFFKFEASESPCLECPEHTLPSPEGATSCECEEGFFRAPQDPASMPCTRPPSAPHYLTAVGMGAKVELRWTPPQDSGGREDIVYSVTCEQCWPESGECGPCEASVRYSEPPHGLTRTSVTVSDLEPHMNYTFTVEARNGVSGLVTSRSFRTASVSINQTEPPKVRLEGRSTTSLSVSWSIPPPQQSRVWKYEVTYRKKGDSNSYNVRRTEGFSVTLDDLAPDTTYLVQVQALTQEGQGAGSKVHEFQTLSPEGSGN

B1: 10D3/M (antibody, V domains shown)
VH: QMQLVQSGPEVKKPGTSVKVSCKASGFTFDDYSMTWVRQARGQRLEWIGFIRNKANAYTTEYADSVKGRVTITRDMSTSTAYMELSSLRSEDTAVYYCARYPRYHAMDSWGQGTSVTVSS
VL: DIQMTQSPSSLSASVGDRVTITCRASQSISNNLHWYQQKPGKAPKLLIKYAFQSISGVPSRFSGSGSGTDFTFTISSLQPEDFATYYCQQANSWPLTFGGGTKVEIK
B2: 4B11 humanized anti-EphA2 monoclonal antibody (antibody, human IgG1, V domains shown)
VH: B1 VH with D30T, T35N, A57S, A63S, D64A, Y104H
VL: B1 VL with A91S
B3: 4B11/M (antibody, V domains shown)
VH: B1 VH with D30T, T35N, A57S, Y104H
VL: B1 VL with A91S
B4: G5 humanized anti-EphA2 monoclonal antibody (antibody, human IgG1, V domains shown)
VH: B1 VH with D30T, T35N, A57D, A63S, D64A
VL: B1 VL with A51V, A91S
B5: 10D3 humanized anti-EphA2 monoclonal antibody (antibody, human IgG1, V domains shown)
VH: B1 VH with A63S, D64A
VL: B1 VL
B6: 12G3/M, heavy chain modified 12G3 (S60A/A61D, Kabat) (antibody, human IgG1, V domains shown)
VH: B1 VH with T35N, A57D, Y104H
VL: B1 VL
notes: The light chain is unaltered; Human IgG1 / kappa; also called 12G3/Mut
B7: 4C10 humanized anti-EphA2 monoclonal antibody (antibody, human IgG1, V domains shown)
VH: B1 VH with A63S, D64A, Y104H
VL: B1 VL with A91S
notes: Expressed in HEK 293 cells as soluble human IgG1 (human gamma 1 heavy chain, human kappa light chain)
B8: 4C10/M, heavy chain modified 4C10 (S60A/A61D, Kabat) (antibody, human IgG1, V domains shown)
VH: B1 VH with Y104H
VL: B1 VL with A91S
notes: The light chain is unaltered; Human IgG1 / kappa; also called 4C10/Mut
B9: 12G3 humanized anti-EphA2 monoclonal antibody (antibody, human IgG1, V domains shown)
VH: B1 VH with T35N, A57D, A63S, D64A, Y104H
VL: B1 VL
notes: Expressed as soluble human IgG1 (human gamma 1, human kappa)
B10: 1E11/M (antibody, V domains shown)
VH: B1 VH with A57D
VL: B1 VL with A51T
B11: 1E11 humanized anti-EphA2 monoclonal antibody (antibody, human IgG1, V domains shown)
VH: B1 VH with A57D, A63S, D64A
VL: DIQMTQSPSSLSASVGDRVTITCRASQSISNNLHWYQQKPGKAPKLLIKYTFQSISGVPSRFSGSGSGTDFTFTISSLQPEDFATYYCQQANSWPLTFGGGTKVEIKE
B12: G5/M (antibody, V domains shown)
VH: B1 VH with D30T, T35N, A57D
VL: B1 VL with A51V, A91S

Target: T1, EphA2-Fc (UniProt P29317 25-534, limits assumed)
T1 construct: Amine-coupled to a CM5 chip; not shown: Fc part
Assay: SPR (BIAcore), 250 µl transfection supernatant (2nd transfection, 2nd harvest) over EphA2-Fc amine-coupled to a CM5 chip at 4539 RU, 25 °C, 75 µL/min

Row | Binder | binding
1 | B1 | binds
2 | B2 | binds
3 | B3 | binds
4 | B4 | binds
5 | B5 | binds
6 | B6 | binds
7 | B7 | binds
8 | B8 | binds
9 | B9 | binds
10 | B10 | binds
11 | B11 | binds
12 | B12 | binds
